Among the data in publication doi:10.1101/2025.08.01.667725 are binding values, retold here.

By UniProt entry, the sequences of proteins in these tests, tags left out.
UniProt P23771: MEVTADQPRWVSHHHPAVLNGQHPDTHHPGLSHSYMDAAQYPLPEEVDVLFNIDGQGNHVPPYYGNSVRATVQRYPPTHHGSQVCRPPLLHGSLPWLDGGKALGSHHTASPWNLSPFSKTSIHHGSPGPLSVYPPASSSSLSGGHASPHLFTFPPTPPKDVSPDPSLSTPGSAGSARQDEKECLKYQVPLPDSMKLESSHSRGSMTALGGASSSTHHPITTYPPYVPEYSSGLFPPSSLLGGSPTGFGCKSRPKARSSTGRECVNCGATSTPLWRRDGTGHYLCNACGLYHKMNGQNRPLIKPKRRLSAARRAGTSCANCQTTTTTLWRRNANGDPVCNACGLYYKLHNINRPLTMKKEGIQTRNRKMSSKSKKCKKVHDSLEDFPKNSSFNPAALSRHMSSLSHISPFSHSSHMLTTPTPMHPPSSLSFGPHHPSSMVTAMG

No constants are given. Whether binding was seen depends on the method and setting. In cells and extracts the contact can be indirect. Some entries that bind do so weakly or less than the wild type.

The target of this assay is HA-tagged GATA3 (human) (UniProt P23771). Nature of the assay: co-IP; HA-tagged TF expressed in wild-type and in SMARCA4/SMARCA2 dual-deficient HEK-293T cells; nuclear extract; immunoblot. (In western blotting, separated proteins are transferred to a membrane and probed.)

Regarding SMARCD1 (from UniProt Q96GM5 1-515), the binding entry is listed as “binds”.
In the case of SMARCC1 (from UniProt Q92922 1-1105) it was “binds”.
